Test system: 3-month-old C57BL/6 mice
Assay: Excitatory post-synaptic potentials (EPSP) induced by electrical stimulation in alert mice (perforant pathway / dentate gyrus of the hippocampus)
Type: in vivo
Settings: Compound S 3.0 mg/kg
[1] = 5 minutes, single p.o. dose rivastigmine 0.03 mg/kg
[2] = 10 minutes, single p.o. dose rivastigmine 0.03 mg/kg
[3] = 15 minutes, single p.o. dose rivastigmine 0.03 mg/kg
[4] = 20 minutes, single p.o. dose rivastigmine 0.03 mg/kg
[5] = 25 minutes, single p.o. dose rivastigmine 0.03 mg/kg
[6] = 30 minutes, single p.o. dose rivastigmine 0.03 mg/kg
[7] = 35 minutes, single p.o. dose rivastigmine 0.03 mg/kg
[8] = 40 minutes, single p.o. dose rivastigmine 0.03 mg/kg
[9] = 45 minutes, single p.o. dose rivastigmine 0.03 mg/kg
[10] = 50 minutes, single p.o. dose rivastigmine 0.03 mg/kg
[11] = 55 minutes, single p.o. dose rivastigmine 0.03 mg/kg
[12] = 60 minutes, single p.o. dose rivastigmine 0.03 mg/kg
[13] = 65 minutes, single p.o. dose rivastigmine 0.03 mg/kg
[14] = 70 minutes, single p.o. dose rivastigmine 0.03 mg/kg
[15] = 75 minutes, single p.o. dose rivastigmine 0.03 mg/kg
[16] = 80 minutes, single p.o. dose rivastigmine 0.03 mg/kg
[17] = 85 minutes, single p.o. dose rivastigmine 0.03 mg/kg
[18] = 90 minutes, single p.o. dose rivastigmine 0.03 mg/kg
[19] = 95 minutes, single p.o. dose rivastigmine 0.03 mg/kg
[20] = 100 minutes, single p.o. dose rivastigmine 0.03 mg/kg
[21] = 105 minutes, single p.o. dose rivastigmine 0.03 mg/kg
[22] = 110 minutes, single p.o. dose rivastigmine 0.03 mg/kg
[23] = 115 minutes, single p.o. dose rivastigmine 0.03 mg/kg
[24] = 120 minutes, single p.o. dose rivastigmine 0.03 mg/kg
[25] = 125 minutes, single p.o. dose rivastigmine 0.03 mg/kg
[26] = 130 minutes, single p.o. dose rivastigmine 0.03 mg/kg
[27] = 135 minutes, single p.o. dose rivastigmine 0.03 mg/kg
[28] = 140 minutes, single p.o. dose rivastigmine 0.03 mg/kg
[29] = 145 minutes, single p.o. dose rivastigmine 0.03 mg/kg
[30] = 150 minutes, single p.o. dose rivastigmine 0.03 mg/kg
[31] = Baseline-5 (before administration), groups rivastigmine 0.03 mg/kg
[32] = Baseline-10 (before administration), groups rivastigmine 0.03 mg/kg
[33] = Baseline-15 (before administration), groups rivastigmine 0.03 mg/kg
[34] = Baseline-20 (before administration), groups rivastigmine 0.03 mg/kg
[35] = Baseline-25 (before administration), groups rivastigmine 0.03 mg/kg
[36] = Baseline-30 (before administration), groups rivastigmine 0.03 mg/kg

SMILES | post hoc analysis versus carrier, field EPSP amplitudes [1] | post hoc analysis versus carrier, field EPSP amplitudes [2] | post hoc analysis versus carrier, field EPSP amplitudes [3] | post hoc analysis versus carrier, field EPSP amplitudes [4] | post hoc analysis versus carrier, field EPSP amplitudes [5] | post hoc analysis versus carrier, field EPSP amplitudes [6] | post hoc analysis versus carrier, field EPSP amplitudes [7] | post hoc analysis versus carrier, field EPSP amplitudes [8] | post hoc analysis versus carrier, field EPSP amplitudes [9] | post hoc analysis versus carrier, field EPSP amplitudes [10] | post hoc analysis versus carrier, field EPSP amplitudes [11] | post hoc analysis versus carrier, field EPSP amplitudes [12] | post hoc analysis versus carrier, field EPSP amplitudes [13] | post hoc analysis versus carrier, field EPSP amplitudes [14] | post hoc analysis versus carrier, field EPSP amplitudes [15] | post hoc analysis versus carrier, field EPSP amplitudes [16] | post hoc analysis versus carrier, field EPSP amplitudes [17] | post hoc analysis versus carrier, field EPSP amplitudes [18] | post hoc analysis versus carrier, field EPSP amplitudes [19] | post hoc analysis versus carrier, field EPSP amplitudes [20] | also measured
O=C1c2cc3nnn(CCc4cccc(F)c4)c(=O)c3cc2OCN1C1CC1 [Compound S, 8-cyclopropyl-3-[2-(3-fluorophenyl)ethyl]-7,8-dihydro-3H-[1,3]oxazino[6,5-g][1,2,3]benzotriazine-4,9-dione] | 0.277 | 0.954 | 0.549 | 0.960 | 0.205 | 0.424 | 0.738 | 0.229 | 0.007 | 0.244 | 0.310 | 0.243 | 0.118 | 0.584 | 0.284 | 0.856 | 0.980 | 0.596 | 0.197 | 0.592 | post hoc analysis versus carrier, field EPSP amplitudes [21]: 0.688; post hoc analysis versus carrier, field EPSP amplitudes [22]: 0.601; post hoc analysis versus carrier, field EPSP amplitudes [23]: 0.002; post hoc analysis versus carrier, field EPSP amplitudes [24]: 0.007; post hoc analysis versus carrier, field EPSP amplitudes [25]: 0.243; post hoc analysis versus carrier, field EPSP amplitudes [26]: 0.521; post hoc analysis versus carrier, field EPSP amplitudes [27]: 0.979; post hoc analysis versus carrier, field EPSP amplitudes [28]: 0.337; post hoc analysis versus carrier, field EPSP amplitudes [29]: 0.810; post hoc analysis versus carrier, field EPSP amplitudes [30]: 0.362; post hoc analysis versus carrier, field EPSP amplitudes [31]: 0.886; post hoc analysis versus carrier, field EPSP amplitudes [32]: 0.989; post hoc analysis versus carrier, field EPSP amplitudes [33]: 0.399; post hoc analysis versus carrier, field EPSP amplitudes [34]: 1.000; post hoc analysis versus carrier, field EPSP amplitudes [35]: 0.997; post hoc analysis versus carrier, field EPSP amplitudes [36]: 0.621
CCN(C)C(=O)Oc1cccc([C@H](C)N(C)C)c1 [rivastigmine] | 0.725 | 0.939 | 0.833 | 0.861 | 0.639 | 0.853 | 0.894 | 0.241 | 0.028 | 0.660 | 0.230 | 0.225 | 0.014 | 0.530 | 0.254 | 0.904 | 0.972 | 0.356 | 0.526 | 0.971 | post hoc analysis versus carrier, field EPSP amplitudes [21]: 0.558; post hoc analysis versus carrier, field EPSP amplitudes [22]: 0.632; post hoc analysis versus carrier, field EPSP amplitudes [23]: 0.007; post hoc analysis versus carrier, field EPSP amplitudes [24]: 0.163; post hoc analysis versus carrier, field EPSP amplitudes [25]: 0.251; post hoc analysis versus carrier, field EPSP amplitudes [26]: 0.311; post hoc analysis versus carrier, field EPSP amplitudes [27]: 0.536; post hoc analysis versus carrier, field EPSP amplitudes [28]: 0.323; post hoc analysis versus carrier, field EPSP amplitudes [29]: 0.810; post hoc analysis versus carrier, field EPSP amplitudes [30]: 0.413; post hoc analysis versus carrier, field EPSP amplitudes [31]: 0.705; post hoc analysis versus carrier, field EPSP amplitudes [32]: 0.869; post hoc analysis versus carrier, field EPSP amplitudes [33]: 0.135; post hoc analysis versus carrier, field EPSP amplitudes [34]: 0.985; post hoc analysis versus carrier, field EPSP amplitudes [35]: 0.987; post hoc analysis versus carrier, field EPSP amplitudes [36]: 0.681

— US20170027949A1, “ASSOCIATION BETWEEN 8-CYCLOPROPYL-3-[2-(3-FLUOROPHENYL)ETHYL]-7,8-DIHYDRO-3H-[1,3]OXAZINO[6,5-g][1,2,3]BENZOTRIAZINE-4,9-DIONE AND AN ACETYLCHOLINESTERASE INHIBITOR, AND PHARMACEUTICAL COMPOSITIONS CONTAINING IT” (priority 2014, published 2017)
